## Library screening results

Measurements from “University of Dundee, Small-Polar-MMV Screening Library” (2021), ChEMBL document CHEMBL3988442.

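Viability assay of Plasmodium falciparum sporozoites; the read-out is not stated. The concentration is filed as 10 mM, unlikely as a test dose, so the dose is not known. Higher reads as lower viability (inferred: compounds with an IC50 in retests scored well above the rest). Strong results were mostly tested again. Of about 34,000 compounds tested this way, about 280 (0.84%) reached 50% or more in at least one test.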

The filed quantity is “Percent Effect” (%).
How 0% and 100% were set is not recorded. Most values in the screen are low, and negative values occur.
This is an unselected part of the compounds tested.
Two or more numbers in one place are separate tests of the same structure; such repeats can differ widely.

{"compound": "COc1nc2c(cc1C(=O)N(C)Cc1[nH]nc3c1CCC3)CCC2", "percent effect": "-38.82 and -35.75"}
{"compound": "O=C(C1CCOC1)N1Cc2ccccc2OC2(CCOCC2)C1", "stereo": "stereo unspecified", "percent effect": -0.4995}
{"compound": "Nc1nccc(C2CCCN2CCc2ccccc2)n1", "stereo": "stereo unspecified", "percent effect": 10.86}
{"compound": "CCCc1ncc(CN(C)C2CCCN(CCc3ccccc3)C2)cn1", "stereo": "stereo unspecified", "percent effect": 4.649}
{"compound": "N#Cc1ccc(CN2CCCC2Cn2cccn2)cc1", "stereo": "stereo unspecified", "percent effect": 5.538}
{"compound": "Cc1ccc(CNC(C)c2ccc3[nH]c(=O)[nH]c3c2)s1", "stereo": "stereo unspecified", "percent effect": 4.32}
{"compound": "CC(C)CN1CCCn2nc(CNC(=O)CCN)cc2C1", "percent effect": 1.073}
{"compound": "Cc1cccc(Nc2noc3c2CN(C(=O)c2ccn(C)n2)CC3)c1C", "percent effect": 7.122}
{"compound": "CC(C)CCN1CCc2[nH]nc(C(=O)N3CC=CC3)c2C1.O=C(O)C(F)(F)F.O=C(O)C(F)(F)F", "percent effect": -5.537}
{"compound": "CCN(Cc1ccc(N(C)C)cc1)S(=O)(=O)c1cc(Br)ccc1OC", "percent effect": "-30.7 and -23.79"}
{"compound": "O=C(NCc1ccccc1)NCc1nc(-c2ccncc2)n[nH]1", "percent effect": -0.74}
{"compound": "COc1ccc(COCC(O)CN2CCC(c3ccn[nH]3)CC2)cc1", "stereo": "stereo unspecified", "percent effect": 11.4}
{"compound": "CC(c1ccco1)N(C)Cc1nc2c(cnn2C)c(=O)[nH]1", "stereo": "stereo unspecified", "percent effect": 5.597}
{"compound": "Cc1[nH]ncc1C(=O)N1CCCN(Cc2nccn2C(C)C)CC1", "percent effect": 2.703}
{"compound": "CS(=O)(=O)N1Cc2nccn2CC(Cn2ncccc2=O)C1", "stereo": "stereo unspecified", "percent effect": -2.056}
{"compound": "Cc1ccc(-c2cc(C(=O)N(C)Cc3noc4c3CCCC4)[nH]n2)o1", "percent effect": 2.686}
{"compound": "Cc1cc(-c2cnc(NC3CC3)nc2-c2ccoc2)on1", "percent effect": 2.879}
{"compound": "Cc1ncoc1C(=O)N1CCCC(C(=O)c2cccc(OC(C)C)c2)C1", "stereo": "stereo unspecified", "percent effect": -3.727}
{"compound": "CCN(C)C1COC2(CCN(C(=O)c3ccc4[nH]ccc4c3)CC2)C1", "stereo": "stereo unspecified", "percent effect": -2.053}
{"compound": "CN(C)S(=O)(=O)N1CCC(Oc2ccccn2)CC1", "percent effect": 2.123}
{"compound": "CN(C)C(=O)CC1CC2(CCNCC2)c2cc(F)ccc21", "stereo": "stereo unspecified", "percent effect": -5.029}
{"compound": "COc1ccc(-n2ncc(C(=O)NCC3COC(C)(C)O3)c2N)cc1", "stereo": "stereo unspecified", "percent effect": -8.245}
{"compound": "NC(=O)N1CC[C@H](O)[C@@H]1Cc1cccnc1.O=C(O)C(F)(F)F", "percent effect": -1.143}
{"compound": "Cc1cnn(CCC(=O)N2CCCN(c3nc(C)cs3)CC2)c1", "percent effect": 5.488}
{"compound": "[H][C@@]12CS(=O)(=O)C[C@]1([H])N(C(=O)c1cccc(C)n1)CCN2CCC", "percent effect": -7.387}
{"compound": "COCC(=O)N1CCN(c2cc(C)nc(C3CCCN3C(C)=O)c2)CC1", "stereo": "stereo unspecified", "percent effect": -2.343}
{"compound": "c1ncn(CC2CCCCN2Cc2csc(-c3ccsc3)n2)n1", "stereo": "stereo unspecified", "percent effect": 7.394}
{"compound": "CCN(c1ccc(C(=O)N2CCCC(C)C2)cc1)S(=O)(=O)CC", "stereo": "stereo unspecified", "percent effect": -3.807}
{"compound": "CC(CO)NC(=O)Nc1ccc(COC2CCCC2)cc1", "stereo": "stereo unspecified", "percent effect": -9.748}
{"compound": "CC(=O)c1cccc(NC(=O)CN2CCCCC2C)c1", "stereo": "stereo unspecified", "percent effect": -10.87}
{"compound": "O=C(CCc1cscn1)N1CCCC(n2cncn2)C1", "stereo": "stereo unspecified", "percent effect": 18.4}
{"compound": "CSCC(=O)N1CCCN(c2ccccc2C)CC1", "percent effect": -14.07}
{"compound": "CS(=O)(=O)NCc1cncc2c1CCN(C(=O)c1cccnc1)C2.Cl.Cl", "percent effect": 8.938}
{"compound": "CCCn1nc(C)c(C(=O)N[C@@H]2CC[C@@H](N3CCCC3)[C@@H]2O)c1C", "percent effect": 4.542}
{"compound": "Cc1cc2ccccc2n1CCC(=O)N1CCC[C@H]1C(N)=O", "percent effect": -0.8919}
{"compound": "Cn1c(=O)n(C)c2cc(NS(=O)(=O)Cc3ccccc3)ccc21", "percent effect": -0.641}
{"compound": "CC(=O)NCCNC(=O)c1sc(-c2ccc(Cl)s2)nc1C", "percent effect": -6.266}
{"compound": "CC(C)(C)N1CC(C(=O)N2CCN(CCn3cncn3)CC2)CC1=O", "stereo": "stereo unspecified", "percent effect": 6.272}
{"compound": "O=C(O)C(F)(F)F.O=C1CC2(CCCCN2C(=O)c2ccncc2)CN1CC1CC1", "stereo": "stereo unspecified", "percent effect": -13.72}
{"compound": "[H][C@@]12CN(Cc3ccccc3)C[C@]1([H])N(CCCN1CCOCC1)C(=O)O2", "percent effect": -1.931}
{"compound": "Fc1ccc(OCCNCCn2cccn2)cc1", "percent effect": 4.913}
{"compound": "CC1(C)CN(C(=O)CCc2nc(-c3ccncc3)no2)CCO1", "percent effect": 0.9879}
{"compound": "CC(O)CN1CCN(C(=O)c2ccc(CN(C)C)cc2)CC1", "stereo": "stereo unspecified", "percent effect": 14.55}
{"compound": "O=C(O)C(F)(F)F.O=C(O)C(F)(F)F.[H][C@@]12C[C@@H](Oc3ccc(C)cc3)CN1CCN(C(=O)Cc1ccccn1)C2", "percent effect": 1.804}
{"compound": "CCOCCCNCc1cc2c(C)cc(C)cc2n2c(=O)n(C)nc12", "percent effect": 14.46}
{"compound": "Cc1nc(-c2ccc(CC(=O)N3CCNC(=O)C3)cc2)cs1", "percent effect": 4.142}
{"compound": "O=C(O)c1ccc(=O)n(CC(c2ccc(Cl)cc2)N2CCCCCC2)c1", "stereo": "stereo unspecified", "percent effect": 8.495}
{"compound": "O=C(Cc1ccccc1)N1CCN(CC(O)c2ccc(F)cc2)CC1", "stereo": "stereo unspecified", "percent effect": 2.273}
{"compound": "Cc1ccoc1C(=O)NC1CCN(Cc2cccc3c2OCCO3)CC1", "percent effect": -8.115}
{"compound": "Cc1cccc(S(=O)(=O)N2Cc3nccn3CC(CN(C)C)C2)c1", "stereo": "stereo unspecified", "percent effect": -5.738}

Repeated from the top, 5 entries:

{"compound": "COc1nc2c(cc1C(=O)N(C)Cc1[nH]nc3c1CCC3)CCC2", "percent effect": "-38.82 and -35.75"}
{"compound": "O=C(C1CCOC1)N1Cc2ccccc2OC2(CCOCC2)C1", "stereo": "stereo unspecified", "percent effect": -0.4995}
{"compound": "Nc1nccc(C2CCCN2CCc2ccccc2)n1", "stereo": "stereo unspecified", "percent effect": 10.86}
{"compound": "CCCc1ncc(CN(C)C2CCCN(CCc3ccccc3)C2)cn1", "stereo": "stereo unspecified", "percent effect": 4.649}
{"compound": "N#Cc1ccc(CN2CCCC2Cn2cccn2)cc1", "stereo": "stereo unspecified", "percent effect": 5.538}